Drawing on US20030113828A1, “Compositions and methods for modulating Syk function” (priority 2001, published 2003), this text covers binding for one substance.

Sequences of proteins named here, by UniProt entry; tags and fusion partners are left off. Residues count along the entry.
UniProt P05106, residues 742-788: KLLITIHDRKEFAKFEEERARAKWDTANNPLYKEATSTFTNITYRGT
UniProt P43403: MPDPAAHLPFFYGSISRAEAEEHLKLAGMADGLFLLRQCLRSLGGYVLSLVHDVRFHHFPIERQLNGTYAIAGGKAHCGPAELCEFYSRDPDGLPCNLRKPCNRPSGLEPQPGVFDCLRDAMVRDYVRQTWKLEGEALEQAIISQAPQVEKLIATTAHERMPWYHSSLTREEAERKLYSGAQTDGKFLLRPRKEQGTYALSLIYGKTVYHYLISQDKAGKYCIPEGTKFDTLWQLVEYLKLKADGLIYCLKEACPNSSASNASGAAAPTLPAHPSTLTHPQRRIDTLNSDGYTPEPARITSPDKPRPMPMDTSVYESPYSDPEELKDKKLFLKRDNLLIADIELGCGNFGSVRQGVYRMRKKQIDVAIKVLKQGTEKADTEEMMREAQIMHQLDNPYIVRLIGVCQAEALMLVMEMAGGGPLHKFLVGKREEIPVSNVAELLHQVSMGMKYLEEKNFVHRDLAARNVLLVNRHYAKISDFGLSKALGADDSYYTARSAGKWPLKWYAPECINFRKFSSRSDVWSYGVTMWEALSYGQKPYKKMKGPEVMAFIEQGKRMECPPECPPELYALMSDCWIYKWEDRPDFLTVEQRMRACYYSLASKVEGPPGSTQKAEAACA

Results are given in words; binding and its absence hold for the method and conditions named. Some binding calls cover weakened binding; strength is not graded here.

The target of the test is integrin β3 cytoplasmic tail model protein (UniProt P05106). In words: affinity chromatography of cell lysates on tail model protein beads, immunoblot.

In the case of “Zap-70 (from UniProt P43403 1-619) (enzyme)”, the binding entry is reported as “binds”.
